# Data as given in US10040806B2, “Microbiocidally active benzoxaboroles” (Syngenta Participations AG, priority 2014, dated 2018).
# Some results were stated once for a whole list of compounds, not compound by compound.
# System: Alternaria solani
# Assay: Alternaria solani/tomato/leaf disc (early blight)
# Type: in vivo
# Details: 200 ppm; tomato leaf disks cv. Baby, inoculated 2 days after application; assessed 5-7 days after application
row,Structure (SMILES),disease control
1,"COc1cc(Cl)cc2c1B(O)OC2 [Compound 104, 5-chloro-1-hydroxy-7-methoxy-3H-2,1-benzoxaborole]",at least 80%

# System: Sclerotinia sclerotiorum
# Assay: Sclerotinia sclerotiorum/liquid culture (cottony rot)
# Details: 20 ppm; liquid culture, PDB; inhibition of growth determined visually 3-4 days after application
row,Structure (SMILES),disease control
1,OB1OCc2cc3c(cc21)OC(F)(F)O3 [Compound 1],at least 80%
2,"COc1cc2c(cc1Cl)COB2O [Compound 5, 5-chloro-1-hydroxy-6-methoxy-3H-2,1-benzoxaborole]",at least 80%
3,"CCOc1cc2c(cc1Cl)COB2O [Compound 9, 5-chloro-6-ethoxy-1-hydroxy-3H-2,1-benzoxaborole]",at least 80%
4,"CCOc1cc2c(cc1C)COB2O [Compound 38, 6-ethoxy-1-hydroxy-5-methyl-3H-2,1-benzoxaborole]",at least 80%
5,"CCOc1c(Cl)cc2c(c1Cl)B(O)OC2 [Compound 95, 5,7-dichloro-6-ethoxy-1-hydroxy-3H-2,1-benzoxaborole]",at least 80%
6,"COc1cc(Cl)cc2c1B(O)OC2 [Compound 104, 5-chloro-1-hydroxy-7-methoxy-3H-2,1-benzoxaborole]",at least 80%

# System: Thanatephorus cucumeris (Rhizoctonia solani)
# Assay: not given
# Details: 20 ppm; liquid culture, PDB; inhibition of growth determined photometrically 3-4 days after application
row,Structure (SMILES),disease control
1,OB1OCc2cc3c(cc21)OC(F)(F)O3 [Compound 1],at least 80%
2,"CCOc1cc2c(cc1Cl)COB2O [Compound 9, 5-chloro-6-ethoxy-1-hydroxy-3H-2,1-benzoxaborole]",at least 80%
3,"OB1OCc2cc(Cl)c(O)c(Cl)c21 [Compound 94, 5,7-dichloro-1-hydroxy-3H-2,1-benzoxaborol-6-ol]",at least 80%
4,"CCOc1c(Cl)cc2c(c1Cl)B(O)OC2 [Compound 95, 5,7-dichloro-6-ethoxy-1-hydroxy-3H-2,1-benzoxaborole]",at least 80%
5,"COc1cc(Cl)cc2c1B(O)OC2 [Compound 104, 5-chloro-1-hydroxy-7-methoxy-3H-2,1-benzoxaborole]",at least 80%

# System: Puccinia recondita f. sp. tritici
# Assay: Puccinia recondita f. sp. tritici/wheat/leaf disc preventative (brown rust)
# Type: in vivo
# Details: 200 ppm, wheat leaf segments cv Kanzler, inoculated 1 day after application, assessed 7-9 days after application
row,Structure (SMILES),disease control
1,"COc1cc2c(cc1Cl)COB2O [Compound 5, 5-chloro-1-hydroxy-6-methoxy-3H-2,1-benzoxaborole]",at least 80%
2,"CCOc1c(Cl)cc2c(c1Cl)B(O)OC2 [Compound 95, 5,7-dichloro-6-ethoxy-1-hydroxy-3H-2,1-benzoxaborole]",at least 80%

# System: Glomerella lagenarium (Colletotrichum lagenarium)
# Assay: Glomerella lagenarium (Colletotrichum lagenarium)/liquid culture (anthracnose)
# Type: cell-based
# Details: 20 ppm; liquid culture, PDB; inhibition of growth measured photometrically 3-4 days after application
row,Structure (SMILES),disease control
1,OB1OCc2cc3c(cc21)OC(F)(F)O3 [Compound 1],at least 80%
2,"COc1cc2c(cc1Cl)COB2O [Compound 5, 5-chloro-1-hydroxy-6-methoxy-3H-2,1-benzoxaborole]",at least 80%
3,"OB1OCc2cc(Cl)c(O)cc21 [Compound 6, 5-chloro-1-hydroxy-3H-2,1-benzoxaborol-6-ol]",at least 80%
4,"CCOc1cc2c(cc1Cl)COB2O [Compound 9, 5-chloro-6-ethoxy-1-hydroxy-3H-2,1-benzoxaborole]",at least 80%
5,"CCOc1cc2c(cc1C)COB2O [Compound 38, 6-ethoxy-1-hydroxy-5-methyl-3H-2,1-benzoxaborole]",at least 80%
6,"CCOc1c(Cl)cc2c(c1Cl)B(O)OC2 [Compound 95, 5,7-dichloro-6-ethoxy-1-hydroxy-3H-2,1-benzoxaborole]",at least 80%
7,"COc1cc(Cl)cc2c1B(O)OC2 [Compound 104, 5-chloro-1-hydroxy-7-methoxy-3H-2,1-benzoxaborole]",at least 80%

# System: Botryotinia fuckeliana (Botrytis cinerea)
# Assay: Botryotinia fuckeliana (Botrytis cinerea)/liquid culture (gray mould)
# Type: cell-based
# Details: 20 ppm; liquid culture, Vogels broth; inhibition of growth determined photometrically 3-4 days after application
row,Structure (SMILES),disease control
1,OB1OCc2cc3c(cc21)OC(F)(F)O3 [Compound 1],at least 80%
2,"CCOc1cc2c(cc1Cl)COB2O [Compound 9, 5-chloro-6-ethoxy-1-hydroxy-3H-2,1-benzoxaborole]",at least 80%

# System: Gaeumannomyces graminis
# Assay: Gaeumannomyces graminis/liquid culture (take-all of cereals)
# Type: cell-based
# Details: 20 ppm; liquid culture, PDB; inhibition of growth determined photometrically 4-5 days after application
row,Structure (SMILES),disease control
1,OB1OCc2cc3c(cc21)OC(F)(F)O3 [Compound 1],at least 80%
2,"COc1cc2c(cc1Cl)COB2O [Compound 5, 5-chloro-1-hydroxy-6-methoxy-3H-2,1-benzoxaborole]",at least 80%
3,"OB1OCc2cc(Cl)c(O)cc21 [Compound 6, 5-chloro-1-hydroxy-3H-2,1-benzoxaborol-6-ol]",at least 80%
4,"CCOc1cc2c(cc1Cl)COB2O [Compound 9, 5-chloro-6-ethoxy-1-hydroxy-3H-2,1-benzoxaborole]",at least 80%
5,"CCOc1cc2c(cc1C)COB2O [Compound 38, 6-ethoxy-1-hydroxy-5-methyl-3H-2,1-benzoxaborole]",at least 80%
6,"OB1OCc2cc(Cl)c(O)c(Cl)c21 [Compound 94, 5,7-dichloro-1-hydroxy-3H-2,1-benzoxaborol-6-ol]",at least 80%
7,"CCOc1c(Cl)cc2c(c1Cl)B(O)OC2 [Compound 95, 5,7-dichloro-6-ethoxy-1-hydroxy-3H-2,1-benzoxaborole]",at least 80%
